Paper doi:10.64898/2025.12.03.691809
These are yes or no findings as the source states them, for the method shown. Binding seen in cells or lysates may run through a third protein. These calls come from enrichment with a bait or labelling near it, and not all partners need be listed. No binding means not detected with the bait.

The chains behind the UniProt entries cited, without tags or fusion partners.
UniProt Q9HD67: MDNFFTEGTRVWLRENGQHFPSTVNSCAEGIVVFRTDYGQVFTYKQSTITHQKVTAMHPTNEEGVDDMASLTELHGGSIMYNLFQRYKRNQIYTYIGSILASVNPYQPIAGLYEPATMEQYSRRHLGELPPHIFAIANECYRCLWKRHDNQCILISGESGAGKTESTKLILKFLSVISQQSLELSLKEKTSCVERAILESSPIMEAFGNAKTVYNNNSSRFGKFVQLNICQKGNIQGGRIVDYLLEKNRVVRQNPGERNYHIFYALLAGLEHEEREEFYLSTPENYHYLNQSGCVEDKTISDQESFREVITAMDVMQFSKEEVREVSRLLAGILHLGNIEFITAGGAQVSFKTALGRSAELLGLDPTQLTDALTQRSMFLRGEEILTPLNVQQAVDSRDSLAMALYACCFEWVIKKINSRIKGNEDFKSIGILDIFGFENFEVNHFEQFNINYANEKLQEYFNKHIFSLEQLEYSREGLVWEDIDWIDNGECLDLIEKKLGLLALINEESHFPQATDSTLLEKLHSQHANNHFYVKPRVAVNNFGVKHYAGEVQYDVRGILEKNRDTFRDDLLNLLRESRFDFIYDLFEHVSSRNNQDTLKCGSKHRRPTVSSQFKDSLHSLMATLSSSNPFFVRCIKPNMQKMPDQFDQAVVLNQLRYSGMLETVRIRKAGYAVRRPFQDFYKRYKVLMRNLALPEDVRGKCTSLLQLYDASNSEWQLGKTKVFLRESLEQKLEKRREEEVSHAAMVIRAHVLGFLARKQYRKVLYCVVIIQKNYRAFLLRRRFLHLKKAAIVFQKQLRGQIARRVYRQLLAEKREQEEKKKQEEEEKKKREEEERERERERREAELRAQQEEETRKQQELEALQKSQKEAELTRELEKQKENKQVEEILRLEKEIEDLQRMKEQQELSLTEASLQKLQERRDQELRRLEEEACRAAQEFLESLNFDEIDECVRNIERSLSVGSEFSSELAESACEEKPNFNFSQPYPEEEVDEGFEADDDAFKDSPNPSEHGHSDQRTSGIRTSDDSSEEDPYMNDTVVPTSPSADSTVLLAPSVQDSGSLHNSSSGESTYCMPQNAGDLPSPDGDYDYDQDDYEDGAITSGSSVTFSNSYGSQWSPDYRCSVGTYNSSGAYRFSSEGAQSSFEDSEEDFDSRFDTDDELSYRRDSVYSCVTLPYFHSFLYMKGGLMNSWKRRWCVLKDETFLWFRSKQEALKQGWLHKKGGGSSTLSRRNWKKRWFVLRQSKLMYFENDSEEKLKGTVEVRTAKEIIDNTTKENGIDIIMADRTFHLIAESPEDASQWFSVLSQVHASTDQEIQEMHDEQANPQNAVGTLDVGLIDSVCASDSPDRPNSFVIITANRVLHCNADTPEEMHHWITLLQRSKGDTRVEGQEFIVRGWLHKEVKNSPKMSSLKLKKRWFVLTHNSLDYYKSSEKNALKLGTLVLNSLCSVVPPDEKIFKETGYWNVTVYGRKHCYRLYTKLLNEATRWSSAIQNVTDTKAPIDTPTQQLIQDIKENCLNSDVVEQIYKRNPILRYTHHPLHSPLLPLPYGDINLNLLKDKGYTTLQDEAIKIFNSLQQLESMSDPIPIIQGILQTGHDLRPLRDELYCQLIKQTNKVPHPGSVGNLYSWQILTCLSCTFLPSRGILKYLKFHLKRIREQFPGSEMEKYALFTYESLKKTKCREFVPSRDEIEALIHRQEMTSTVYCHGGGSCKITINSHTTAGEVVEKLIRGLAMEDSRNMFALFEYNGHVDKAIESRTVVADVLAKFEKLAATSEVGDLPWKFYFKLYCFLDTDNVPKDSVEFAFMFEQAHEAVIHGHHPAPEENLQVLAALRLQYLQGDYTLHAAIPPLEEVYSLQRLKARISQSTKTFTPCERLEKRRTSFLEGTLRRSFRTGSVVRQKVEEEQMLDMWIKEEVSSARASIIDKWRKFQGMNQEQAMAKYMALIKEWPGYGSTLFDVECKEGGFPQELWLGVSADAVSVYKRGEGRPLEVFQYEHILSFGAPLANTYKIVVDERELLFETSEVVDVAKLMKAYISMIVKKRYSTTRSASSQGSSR
UniProt P48643: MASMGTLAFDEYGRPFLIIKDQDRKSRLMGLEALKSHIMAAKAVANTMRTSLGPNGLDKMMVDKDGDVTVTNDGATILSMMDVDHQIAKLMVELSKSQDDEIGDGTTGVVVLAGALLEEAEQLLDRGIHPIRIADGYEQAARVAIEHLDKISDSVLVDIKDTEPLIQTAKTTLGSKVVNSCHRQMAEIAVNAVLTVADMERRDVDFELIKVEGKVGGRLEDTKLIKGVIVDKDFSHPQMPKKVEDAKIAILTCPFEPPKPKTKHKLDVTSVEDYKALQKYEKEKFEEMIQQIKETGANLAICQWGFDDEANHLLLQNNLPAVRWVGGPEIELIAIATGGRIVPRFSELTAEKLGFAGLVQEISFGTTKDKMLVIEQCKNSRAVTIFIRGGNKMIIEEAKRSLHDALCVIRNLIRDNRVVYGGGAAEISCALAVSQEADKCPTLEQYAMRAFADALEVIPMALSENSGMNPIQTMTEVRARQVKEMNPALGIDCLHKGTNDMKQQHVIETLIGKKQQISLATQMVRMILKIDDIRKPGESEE
UniProt Q99832: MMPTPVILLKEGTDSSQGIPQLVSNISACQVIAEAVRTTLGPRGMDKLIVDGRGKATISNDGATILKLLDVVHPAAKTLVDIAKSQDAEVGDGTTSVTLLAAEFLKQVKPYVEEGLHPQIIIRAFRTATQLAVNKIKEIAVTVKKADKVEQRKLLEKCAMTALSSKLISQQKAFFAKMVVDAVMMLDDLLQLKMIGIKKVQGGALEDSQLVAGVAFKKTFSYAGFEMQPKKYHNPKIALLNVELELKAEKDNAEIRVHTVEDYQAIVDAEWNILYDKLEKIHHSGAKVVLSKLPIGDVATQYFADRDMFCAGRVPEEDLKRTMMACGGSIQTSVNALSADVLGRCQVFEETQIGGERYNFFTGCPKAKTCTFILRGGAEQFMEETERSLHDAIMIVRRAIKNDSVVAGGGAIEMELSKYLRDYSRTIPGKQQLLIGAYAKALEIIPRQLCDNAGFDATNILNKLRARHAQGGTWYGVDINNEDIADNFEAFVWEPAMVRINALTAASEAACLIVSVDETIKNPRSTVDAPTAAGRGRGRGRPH

B1: CCT2 (TRiC subunit) (protein, UniProt P78371 1-535)
chain: MASLSLAPVNIFKAGADEERAETARLTSFIGAIAIGDLVKSTLGPKGMDKILLSSGRDASLMVTNDGATILKNIGVDNPAAKVLVDMSRVQDDEVGDGTTSVTVLAAELLREAESLIAKKIHPQTIIAGWREATKAAREALLSSAVDHGSDEVKFRQDLMNIAGTTLSSKLLTHHKDHFTKLAVEAVLRLKGSGNLEAIHIIKKLGGSLADSYLDEGFLLDKKIGVNQPKRIENAKILIANTGMDTDKIKIFGSRVRVDSTAKVAEIEHAEKEKMKEKVERILKHGINCFINRQLIYNYPEQLFGAAGVMAIEHADFAGVERLALVTGGEIASTFDHPELVKLGSCKLIEEVMIGEDKLIHFSGVALGEACTIVLRGATQQILDEAERSLHDALCVLAQTVKDSRTVYGGGCSEMLMAHAVTQLANRTPGKEAVAMESYAKALRMLPTIIADNAGYDSADLVAQLRAAHSEGNTTAGLDMREGTIGDMAILGITESFQVKRQVLLSAAEAAEVILRVDNIIKAAPRKRVPDHHPC

The molecules below were run against TurboID-MYO10 (human) (UniProt Q9HD67) (assay: proximity labelling).

| binding | Molecule |
| --- | --- |
| no binding | CCT5 (TRiC subunit) (from UniProt P48643 1-541) |
| no binding | CCT7 (TRiC subunit) (from UniProt Q99832 1-543) |
| no binding | B1 |
